Numbered stars: 1 amine (or outer) side, 2 acyl side, 3 side chain; on linkers, the order of the positions; unused ones are H or OH. Bridge positions count the residues as written; N and C are the ends. Square brackets hold non-standard residues; d marks the D form. * marks the point of attachment. DOTA = O=C(O)CN1CCN(CC(=O)O)CCN(CC(=O)*)CCN(CC(=O)O)CC1; TATA = O=C(CC[*:1])N1CN(C(=O)CC[*:2])CN(C(=O)CC[*:3])C1; Hyp = O=C(O)[C@@H]1C[C@@H](O)CN1; hArg = N=C(N)NCCCC[C@H](N)C(=O)O; Cba = N[C@@H](CC1CCC1)C(=O)O; βAla = NCCC(=O)O; Sar = CNCC(=O)O
Test: general procedure: peptide synthesis; Rink resin
Conditions: whole synthesis
[1] = scale 1.85 g resin, 0.54 mmol/g

Substance: {DOTA-βAla}-[Sar][Sar][Sar][Sar][Sar][Sar][Sar][Sar][Sar][Sar]A[hArg]DC[Hyp][Cba]VNPLCLHP[dD]W[hArg]C-NH2 (linker 14-21-28 via TATA; SMILES CC(C)C[C@@H]1NC(=O)[C@@H]2CSCCC(=O)N3CN(CN(C3)C(=O)CCSC[C@H](NC(=O)[C@H](CC(=O)O)NC(=O)[C@H](CCCCNC(=N)N)NC(=O)[C@H](C)NC(=O)CN(C)C(=O)CN(C)C(=O)CN(C)C(=O)CN(C)C(=O)CN(C)C(=O)CN(C)C(=O)CN(C)C(=O)CN(C)C(=O)CN(C)C(=O)CN(C)C(=O)CCNC(=O)CN3CCN(CC(=O)O)CCN(CC(=O)O)CCN(CC(=O)O)CC3)C(=O)N3C[C@H](O)C[C@H]3C(=O)N[C@@H](CC3CCC3)C(=O)N[C@@H](C(C)C)C(=O)N[C@@H](CC(N)=O)C(=O)N3CCC[C@H]3C(=O)N[C@@H](CC(C)C)C(=O)N2)C(=O)CCSC[C@@H](C(N)=O)NC(=O)[C@H](CCCCNC(=N)N)NC(=O)[C@H](Cc2c[nH]c3ccccc23)NC(=O)[C@@H](CC(=O)O)NC(=O)[C@@H]2CCCN2C(=O)[C@H](Cc2c[nH]cn2)NC1=O)
- final HPLC purity (HPLC): >95%
- isolated mass [1]: 1312.4 mg
- isolated yield [1]: 36.7%

From article PMC11373624 (Theranostics, 2024)
